Experimental data: PubChem BioAssay AID445 (National Center for Advancing Translational Sciences (NCATS), 2006)
Some of the results follow. The main result of the screen is listed elsewhere. These columns were measured beside it and carry no call. Compounds called inactive in the main read-out are mostly missing here. Potencies come from curve fits of mixed quality, noted in brackets.

experiment: IkB Signaling; conditions: ABC-DLBCL IkBa-CBG/CBR dual luciferase ratio (green luciferase fused to IkBa over red control in OCI-Ly3 lymphoma cells), 4 h; measured here: control luc red channel unless noted
Procedure, shortened: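 Curves were fitted separately to fusion (green), unfused (red) and ratio luminescence, then classed by r2, magnitude and activity. Cells: OCI-Ly3, 4 h compound plus doxycycline at 37C; 10 uM MG-132 defined full response.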

| SMILES | AC50 |
| --- | --- |
| Cc1nc2c(-c3ccc(F)cc3)c(C)nn2c(C)c1CCC(=O)NCc1ccc(Cl)cc1 | 0.251 µM [falling, full curve] |
| COc1ccccc1N1CCN(CC(O)COc2cc(C)cc(C)c2)CC1 (centres undefined) | 7.94 µM [falling, partial curve] |
| COc1cccc(CNC(=O)CCCN2C(=O)CSc3c2c(C)nn3-c2ccccc2)c1 | 7.94 µM [falling, partial curve] |
| O=c1c2ccccc2n(Cc2cccc(F)c2)c(=O)n1Cc1ccccc1Cl | 0.794 µM [falling, full curve] |
| CCn1cc(C(=O)N2CCN(c3cc(C)ccc3C)CC2)c(=O)c2cc(S(=O)(=O)N(C)C3CCCCC3)ccc21 | 12.6 µM [falling, partial curve] |
| Cc1c(CNC(C)CCc2ccccc2)c(C(=O)O)c(C)n1Cc1ccc(F)cc1Cl (centres undefined) | 15.8 µM [falling, partial curve] |
| O=C(c1ccccc1Cl)n1nc(-c2cccnc2)nc1NCc1ccc(F)cc1 | 12.6 µM [falling, partial curve] |
| CCCCOc1ccc(C(=O)N(Cc2ccc(C(C)C)cc2)C2CCS(=O)(=O)C2)cc1 (centres undefined) | 39.8 µM [falling, single point] |
| CCOC(=O)c1c(NC(=O)OC)sc(C(=O)N(CC)CC)c1C | 3.98 µM [rising, partial curve] |
| Cc1ccc2c(=O)cc(CSc3nnc(-c4ccccc4)n3C)[nH]c2c1C | 31.6 µM [falling, partial curve] |
| CCCNC(=O)c1cc(-c2ccco2)on1 | 39.8 µM [falling, single point] |
| CSc1nc2c(c(=O)n1C)SC(C)C2 (centres undefined) | 25.1 µM [rising, partial curve] |
| COCCCNC(=O)c1sc2nc(C)c(C(=O)Nc3ccc(C)cc3C)c(-c3ccc(Cl)cc3)c2c1N | 12.6 µM [falling, partial curve] |
| CC(=O)Nc1ccc(S(=O)(=O)N2CCC(Oc3ccc(-n4cnnn4)cc3)CC2)cc1 | 25.1 µM [falling, partial curve] |
| CCn1c(C(C#N)/C(=N\S(=O)(=O)c2cccs2)c2ccccc2)nc2ccccc21 (centres undefined) | 20 µM [rising, partial curve] [measured here: IkB-luc green channel] |
| COc1cc(OC)cc(-n2nnc(-c3nc(-c4ccccc4Cl)no3)c2N)c1 | 5.01 µM [rising, full curve, poor fit] |
| CC1CCN(C(=O)c2cnn(-c3cccc(Cl)c3)c2C2CCN(C(=O)OC(C)(C)C)CC2)CC1 | 25.1 µM [falling, single point] |
| COc1ccc(OCC(=O)NCC(c2ccc(Cl)cc2)N2CCCCC2)cc1 (centres undefined) | 25.1 µM [falling, partial curve] |
| COc1ccc(NC(=O)c2c(-c3ccccc3)c(-c3ccccc3)nn(C)c2=O)c(OC)c1 | 10 µM [falling, partial curve] |
| COc1ccccc1NC(=O)CSc1oc(-c2cccs2)nc1S(=O)(=O)c1ccc(Br)cc1 | 7.94 µM [falling, partial curve] |

| SMILES | AC50 |
| --- | --- |
| COc1ccc(-c2nc(SCC(=O)Nc3ccc4c(c3)OCO4)c(-c3ccc(OC)cc3)[nH]2)cc1 | 6.31 µM [falling, partial curve] |
| Cc1cc(C)cc(OC(=O)c2snnc2C)c1 | 0.158 µM [rising, full curve, poor fit] |
| COC(=O)C1=C(CSc2nc3ccccc3o2)NC(=O)NC1c1cc(C)ccc1C (centres undefined) | 2.51 µM [falling, full curve] |
| Cc1cnc(C(=O)OCC(=O)Nc2oc(-c3ccccc3)c(-c3ccccc3)c2C#N)cn1 | 10 µM [falling, partial curve] |
| CCC(Sc1nnc(-c2ccc(C)c(Cl)c2)n1CC)C(=O)Nc1nccs1 (centres undefined) | 15.8 µM [falling, partial curve] |
| O=C(Cc1ccccc1)Nc1sc2c(c1C(=O)Nc1ccc(Cl)cc1)CCCC2 | 39.8 µM [rising, single point] [measured here: IkB-luc green channel] |
| COC(=O)c1cccc(NC(=O)CSc2nc3cccnc3n2C)c1 | 7.94 µM [falling, partial curve] |
| Cc1cccc(NC(=O)CSc2nc3c([nH]c4ccccc43)c(=O)n2C)c1C | 0.251 µM [falling, full curve, poor fit] |
| N#C/C(=C\c1ccc(Cl)cc1)c1nc2ccccc2[nH]1 | 7.94 µM [falling, full curve, poor fit] |
| Cc1ccc(S(=O)(=O)CC(=O)Nc2sc3c(c2C#N)CCCCC3)cc1 | 12.6 µM [rising, partial curve] |
| CC(C)CCN(Cc1ccco1)C(=O)c1cc2c(Cl)nc3ccccc3c2s1 | 39.8 µM [falling, single point] |
| O=C(O)C1C2C=CC(C2)C1C(=O)Nc1ccc2c(c1)OCCO2 (centres undefined) | 7.94 µM [falling, partial curve] |
| CCCOc1ccc(-c2nn(-c3ccccc3)cc2C2NC(=O)NC(C)=C2C(=O)OC)cc1C (centres undefined) | 39.8 µM [falling, single point] |
| CCOc1ccccc1NC(=O)Nc1nnc(N2CCCCCC2)s1 | 25.1 µM [falling, partial curve] |
| COC(=O)c1ccc(C2c3c(oc4cc(C)c(C)cc4c3=O)C(=O)N2CCCN(C)C)cc1 (centres undefined) | 3.98 µM [falling, full curve, poor fit] |
| COc1cc(C(=O)Nc2ccc3oc(-c4ccccc4)nc3c2)cc(OC)c1OC | 6.31 µM [falling, partial curve] |
| COc1cc(Cl)c(C)cc1NC(=O)CSc1ncc(S(=O)(=O)c2ccc(C(C)(C)C)cc2)c(=O)[nH]1 | 0.316 µM [falling, full curve] |
| O=C1Nc2ccc(S(=O)(=O)Nc3ccccc3O)c3cccc1c23 | 25.1 µM [falling, single point] |
| COc1ccc(NC(=O)CSc2nnc(-c3cccs3)o2)cc1 | 2.51 µM [rising, partial curve] |

2 entries from above, comma-delimited.
SMILES,AC50
COc1ccc(-c2nc(SCC(=O)Nc3ccc4c(c3)OCO4)c(-c3ccc(OC)cc3)[nH]2)cc1,"6.31 µM [falling, partial curve]"
Cc1cc(C)cc(OC(=O)c2snnc2C)c1,"0.158 µM [rising, full curve, poor fit]"
